The other results are listed elsewhere or left out. Shown are side measurements of this screen, not its main read-out; they come without a call. Compounds called inactive in the main read-out are mostly missing here. Words in brackets tell the shape of the fitted curve; partial curves, single points and poor fits give uncertain potencies.
Assay: qHTS Assay for Lipid Storage Modulators in Drosophila S3 Cells;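 for cell number change: cells counted by Cell Tracker Red CMTPX staining in the red channel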
Conditions: BODIPY lipid droplet fluorescence, 18-24 h; for cell number change: measured here: cell count max response, cells fed with added oleic acid
Summary of the method: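 Drosophila S3 cells loaded with oleic acid (400 uM, as added) and compounds at several concentrations; lipid droplets imaged by 488-nm laser-scanning cytometry, 500–530 nm intensity and object ratio to cell channel. Percent activity normalized to 20 uM Triacsin C.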

[1] = measured here: cell number channel AC50, cells fed with added oleic acid
[2] = measured here: lipid fluorescence (Fed channel) AC50, cells fed with added oleic acid

SMILES | AC50 [1] | AC50 [2] | cell number change [%]
COc1ccccc1NC(=O)Nc1ccncc1 | 0.58 µM [rising, single point] | 0.651 µM [rising, full curve, poor fit] | 
CNC(=S)N1N=C(c2ccc(Br)cc2)CC1c1ccc(Br)cc1 (centres undefined) | 0.058 µM [rising, full curve, poor fit] |  | 25
CCN(CC(=O)Nc1ccccc1C(F)(F)F)C(=O)Cc1ccc2c(c1)CCC2 | 0.58 µM [falling, full curve, poor fit] | 0.411 µM [falling, full curve] | -56.7
CSc1ccccc1NC(=O)c1cc2c(=O)n3ccccc3nc2s1 |  |  | -9.7
O=C(Cc1ccsc1)NCC(=O)Nc1ccc(F)c(F)c1 | 4.11 µM [rising, partial curve, poor fit] |  | 
COC(=O)c1cccc(NS(C)(=O)=O)c1C |  | 32.6 µM [falling, single point] | 
Cc1cnc(C(=O)OCC(=O)Nc2ccc(OCc3ccccc3)cc2)cn1 | 0.00461 µM [falling, full curve, poor fit] |  | -4.1
Cc1ccc(S(=O)(=O)N2CCN(C(=O)NCc3ccc(C(=O)O)cc3)CC2)cc1 |  | 8.2 µM [rising, single point] | 9.17
O=C(CSCc1ccc(Br)cc1)Nc1ccc(S(=O)(=O)N2CCCCCC2)cc1 |  | 29.1 µM [falling, single point] | 97.4
Cn1cc(CNCc2ccc(-n3cccn3)cc2)c(-c2ccccc2F)n1 | 7.31 µM [falling, partial curve] | 7.31 µM [falling, partial curve] | -51.7
Cc1cc(N/N=C/c2cccc(Br)c2)nc2ccccc12 |  | 29.1 µM [falling, single point] | 26
Cc1ccnc(NC(=O)c2ccc([N+](=O)[O-])o2)c1 |  | 25.9 µM [falling, single point] | -29.3
CN(c1ccccc1)S(=O)(=O)c1cccc(NC(=O)CCNC(=O)c2ccc(Cl)cc2)c1 |  | 2.91 µM [rising, single point] | 14.9
CN(CC(=O)Nc1ccccc1Br)CC(=O)Nc1ccccc1C(F)(F)F |  |  | 30.5
O=C(COC(=O)c1ccc2c(c1Cl)C(=O)c1ccccc1C2=O)NC1CCCCC1 | 20.6 µM [rising, single point] | 29.1 µM [rising, single point] | 31.1
COc1ccc(/C=C/C2=CCN(Cc3ccc(OC)cc3)CC2)cc1 |  | 29.1 µM [falling, single point] | -29.2
O=C(Cc1cn2ccsc2n1)Nc1cccc2cnccc12 | 0.00517 µM [rising, full curve, poor fit] | 13 µM [rising, partial curve] | -12.6
COc1ccc(NS(=O)(=O)c2ccc(-c3coc(C)n3)cc2)cc1OC | 6.51 µM [falling, single point] | 10.3 µM [falling, partial curve] | -11.9
Cc1onc(-c2c(Cl)cccc2Cl)c1C(=O)NN1CCCCCC1 |  | 20.6 µM [falling, single point] | -28.7

An excerpt from above in order of formula weight, largest number first:
SMILES | AC50 [1] | AC50 [2] | cell number change [%]
CN(c1ccccc1)S(=O)(=O)c1cccc(NC(=O)CCNC(=O)c2ccc(Cl)cc2)c1 |  | 2.91 µM [rising, single point] | 14.9
Cc1ccc(S(=O)(=O)N2CCN(C(=O)NCc3ccc(C(=O)O)cc3)CC2)cc1 |  | 8.2 µM [rising, single point] | 9.17
Cc1ccnc(NC(=O)c2ccc([N+](=O)[O-])o2)c1 |  | 25.9 µM [falling, single point] | -29.3

More results.

SMILES | AC50 [1] | AC50 [2] | cell number change [%]
Cc1ccc(-c2cc(C(=O)OCC(=O)N(C)c3c(N)n(Cc4ccccc4)c(=O)[nH]c3=O)c3ccccc3n2)o1 | 14.6 µM [falling, partial curve] | 6.51 µM [falling, single point] | -60.7
CN(C(=O)/C=C/c1ccc2c(c1)OCO2)c1ccccc1 |  | 6.51 µM [falling, single point] | -12.9
CN(C)c1ccncc1C(=O)Nc1ccc(F)cc1F |  | 0.517 µM [falling, single point] | 12.1
CCOC(=O)c1ccc(NC(=O)c2cccc(S(=O)(=O)N3CCOCC3)c2)cc1 |  |  | -20.8
CC(=O)Nc1cc2c(cc1C(=O)c1ccc(C)cc1)OCCO2 |  | 11.6 µM [rising, partial curve, poor fit] | -1.9
CCOC(=O)C1=C(c2ccccc2)N=c2s/c(=C\c3ccc(O)cc3)c(=O)n2C1c1cccs1 (centres undefined) | 18.4 µM [falling, single point] |  | -82.6
Cc1nc2ccccc2n1CC(=O)c1ccc(O)c(O)c1 | 0.184 µM [rising, full curve, poor fit] | 6.51 µM [rising, single point] | 10.3
COc1ccccc1C(=O)NC(CCSC)C(=O)NNC(=O)c1ccncc1 (centres undefined) |  | 29.1 µM [rising, single point] | 
Cc1cccc2cc(CN(Cc3ccco3)C(=O)c3ccncc3)c(=O)[nH]c12 | 20.6 µM [rising, partial curve] | 3.66 µM [rising, partial curve] | 104
COc1ccccc1CC(NC(C)=O)C(=O)NC1CCN(C(=O)Nc2ccccc2F)CC1 (centres undefined) |  | 6.51 µM [falling, partial curve] | 6.41
Fc1ccc(COc2ccc3ccccc3c2CNc2nn[nH]n2)cc1 | 7.31 µM [rising, partial curve, poor fit] |  | 30.3
O=C(CSc1nnc2c(n1)[nH]c1ccc(S(=O)(=O)N3CCOCC3)cc12)Nc1ccccc1Cl |  |  | 21
O=C(/C=C/c1ccco1)Nc1cccc(NC(=O)/C=C/c2ccco2)n1 |  |  | -11.4
O=C(CN(Cc1ccccc1)C(=O)CCC(=O)Nc1nccs1)NCc1ccco1 |  |  | 7.98
CSc1nc(SCC(=O)NCC2CCCO2)c2c3c(sc2n1)CN(C)CC3 (centres undefined) |  | 4.11 µM [falling, single point] | 1.9
Cc1ccc(S(=O)(=O)NCC(=O)OCC(=O)NC(=O)NC2CCCC2)cc1 |  | 18.4 µM [rising, single point] | 25.7
COc1ccc(CC/C(C)=N\NC(N)=O)cc1 | 29.1 µM [rising, single point] | 29.1 µM [rising, single point] | 31.3
CCN(CC)C(=O)c1ccccc1NC(=O)c1cccc(S(=O)(=O)N(CC)CC)c1 | 3.66 µM [rising, partial curve] | 7.31 µM [rising, partial curve] | 35.7
O=C(CN(Cc1ccccc1)S(=O)(=O)c1ccc2c(c1)OCCO2)N/N=C/c1ccc(F)cc1 |  | 4.11 µM [rising, single point] | 20.6

SMILES | AC50 [1] | AC50 [2] | cell number change [%]
COc1ccccc1NC(=O)CSC1=NCCN1 |  | 29.1 µM [falling, single point] | 1.45
O=C(NCc1cccnc1)C1CCN(S(=O)(=O)c2cccc(C(F)(F)F)c2)CC1 |  | 0.92 µM [rising, full curve, poor fit] | -5.08
c1ccc(N2CCN(c3ncnc4sc5c(c34)CCC5)CC2)cc1 |  | 0.411 µM [rising, partial curve] | -19.2
CC(C)CCC(CCN1CCOCC1)c1ccc2c(c1)OCO2 (centres undefined) |  | 0.291 µM [rising, full curve, poor fit] | 1.37
O=C(CCOc1cccc(Br)c1)Nc1ccc(F)c(S(=O)(=O)N2CCOCC2)c1 | 8.2 µM [falling, partial curve] | 2.06 µM [falling, partial curve] | -75
CCOC(=O)N1CCN(S(=O)(=O)N2CCCC(C(=O)NCCc3ccc(OCC)c(OCC)c3)C2)CC1 (centres undefined) |  | 1.3 µM [falling, full curve] | 
O=Cc1ccc(-c2ccccc2OC(F)(F)F)o1 |  | 0.116 µM [rising, full curve, poor fit] | -13.5
COc1ccc(C2CC(c3ccc4ccccc4c3)=NN2C(=O)COC(=O)C2CCC(=O)N2)cc1 (centres undefined) |  | 6.51 µM [rising, single point] | -2.6
CN1CCN(CCCC(=O)c2ccc(F)cc2)CC1 |  | 5.8 µM [falling, single point] | 0.841
COc1c(O)ccc(/C=C(\C#N)c2nc3ccccc3[nH]2)c1[N+](=O)[O-] |  | 6.51 µM [rising, single point] | 15.3
CCOc1cccc2sc(=NC(=O)CCS(=O)(=O)c3ccccc3)n(CC)c12 | 0.0651 µM [rising, full curve, poor fit] |  | 
Cc1ccc(NC(=S)NN2CCN(C)CC2)cc1 | 1.03 µM [rising, full curve, poor fit] |  | -16.7
O=C(Cn1cnc2cc([N+](=O)[O-])ccc2c1=O)Nc1ccccc1Cl |  | 6.51 µM [falling, single point] | 2.91
COc1cccc(N2C(=O)C3CCCN3C2c2ccc(Cl)cc2)c1 (centres undefined) |  | 1.3 µM [falling, single point] | 
O=C(NCC1CCCO1)c1ccc2c(=O)n(-c3ccc(F)cc3)c(=S)[nH]c2c1 (centres undefined) | 13 µM [rising, partial curve] |  | 31.6
COCC(=O)Nc1ccc(C(N)=O)cc1 |  | 1.84 µM [falling, partial curve] | -4.05
CC(NC(=O)c1ccc(Br)o1)c1ccccc1 (centres undefined) | 6.51 µM [falling, single point] | 6.51 µM [falling, partial curve, poor fit] | 
COc1ccc(C)cc1NC(=O)CN(C)S(=O)(=O)c1cnc[nH]1 | 10.3 µM [rising, partial curve] | 6.51 µM [rising, partial curve, poor fit] | 47.9
O=C(N/N=C/c1cc(Br)c(Br)o1)C(O)c1ccccc1 (centres undefined) |  | 3.66 µM [rising, single point] | -5.97

From PubChem BioAssay AID2685 (National Center for Advancing Translational Sciences (NCATS), 2010)
